Source: US7674768 (dated 2010)
Non-standard residues stand in square brackets, D forms with d. *: point of attachment. Fmoc = O=C(OCC1c2ccccc2-c2ccccc21)*; hArg = N=C(N)NCCCC[C@H](N)C(=O)O; OtBu = CC(C)(C)O*

Experiment: general procedure: solution-phase peptide synthesis
Conditions: for step yield: coupling step

| Substance | crude HPLC purity (late stage modification step, 220 nm) | step yield (net yield, based on nitrogen content 96.0%) | step yield (recovery yield) |
| --- | --- | --- | --- |
| [MPA-Har-Gly-Asp-Trp-Pro-Cys](NH2) | 45.8% | – | – |
| Fmoc-[hArg]GD(OtBu)WP-OH | – | 82.3% | 81.8% |
